Assay results: patent US8378085B2, “Bacterial ATP synthase binding domain” (priority 2004, dated 2013)
Converted amounts (≈) assume the structure as drawn.

Tested on: M. tuberculosis
Assay: microbe, parasite or virus in culture
Format: cell-based
Conditions: Mycobacterium tuberculosis, read-out: median MIC

CO[C@H]1/C=C/O[C@@]2(C)Oc3c(C)c(O)c4c(O)c(c(/C=N/N5CCN(C)CC5)c(O)c4c3C2=O)NC(=O)/C(C)=C\C=C\[C@H](C)[C@H](O)[C@@H](C)[C@@H](O)[C@@H](C)[C@H](OC(C)=O)[C@@H]1C [rifampin, reference compound]
MIC: 1 µg/mL (≈ 1.22 µM)
